These are yes or no findings as the source states them, for the method shown. In cells and extracts the contact can be indirect. Some results given as binding are weak or reduced against the parent protein; the word gives no strength. For some assays here: Sequences can lack the tags named with a protein.
Legend:
[1] = target: Mediator of IRF3 activation (MITA) (human (endogenous in THP-1)) (UniProt Q86WV6); test: co-IP; endogenous co-IP in M1 and M2 cells derived from TDM cells; antibodies conjugated to resin (CO-IP kit, Pierce); in the presence of MG132 (20 uM); Western blot
HA-MITA = HA-MITA (UniProt Q86WV6); test: co-IP; HEK-293T cells transiently co-transfected with HA-MITA and Flag-GSDMD or HA-MITA and Flag-NLRP3, harvested after 48 h; extracts incubated 12-16 h with the indicated antibodies, then protein A/G beads 2-4 h; in the presence of MG132 (20 uM); Western blot

Sequences of proteins named here, by UniProt entry; tags and fusion partners are left off.
UniProt Q86WV6: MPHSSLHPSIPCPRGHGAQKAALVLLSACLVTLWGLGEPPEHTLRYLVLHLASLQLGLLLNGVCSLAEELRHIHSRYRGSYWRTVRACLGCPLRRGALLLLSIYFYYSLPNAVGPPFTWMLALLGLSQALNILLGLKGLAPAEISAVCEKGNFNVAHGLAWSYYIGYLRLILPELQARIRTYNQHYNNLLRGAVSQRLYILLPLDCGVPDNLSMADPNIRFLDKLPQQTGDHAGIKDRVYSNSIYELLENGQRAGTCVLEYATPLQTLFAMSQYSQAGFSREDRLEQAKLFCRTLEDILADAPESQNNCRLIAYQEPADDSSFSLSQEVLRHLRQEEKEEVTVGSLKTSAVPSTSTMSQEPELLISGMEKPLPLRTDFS

binding [1]	binding (HA-MITA)	Binder
binds		GSDMD (protein, UniProt P57764 1-484) MGSAFERVVRRVVQELDHGGEFIPVTSLQSSTGFQPYCLVVRKPSSSWFWKPRYKCVNLSIKDILEPDAAEPDVQRGRSFHFYDAMDGQIQGSVELAAPGQAKIAGGAAVSDSSSTSMNVYSLSVDPNTWQTLLHERHLRQPEHKVLQQLRSRGDNVYVVTEVLQTQKEVEVTRTHKREGSGRFSLPGATCLQGEGQGHLSQKKTVTIPSGSTLAFRVAQLVIDSDLDVLLFPDKKQRTFQPPATGHKRSTSEGAWPQLPSGLSMMRCLHNFLTDGVPAEGAFTEDFQGLRAEVETISKELELLDRELCQLLLEGLEGVLRDQLALRALEEALEQGQSLGPVEPLDGPAGAVLECLVLSSGMLVPELAIPVVYLLGALTMLSETQHKLLAEALESQTLLGPLELVGSLLEQSAPWQERSTMSLPPGLLGNSWGEGAPAWVLLDECGLELGEDTPHVCWEPQAQGRMCALYASLALLSGLSQEPH
	binds	Flag-GSDMD (protein, UniProt P57764 1-484) MGSAFERVVRRVVQELDHGGEFIPVTSLQSSTGFQPYCLVVRKPSSSWFWKPRYKCVNLSIKDILEPDAAEPDVQRGRSFHFYDAMDGQIQGSVELAAPGQAKIAGGAAVSDSSSTSMNVYSLSVDPNTWQTLLHERHLRQPEHKVLQQLRSRGDNVYVVTEVLQTQKEVEVTRTHKREGSGRFSLPGATCLQGEGQGHLSQKKTVTIPSGSTLAFRVAQLVIDSDLDVLLFPDKKQRTFQPPATGHKRSTSEGAWPQLPSGLSMMRCLHNFLTDGVPAEGAFTEDFQGLRAEVETISKELELLDRELCQLLLEGLEGVLRDQLALRALEEALEQGQSLGPVEPLDGPAGAVLECLVLSSGMLVPELAIPVVYLLGALTMLSETQHKLLAEALESQTLLGPLELVGSLLEQSAPWQERSTMSLPPGLLGNSWGEGAPAWVLLDECGLELGEDTPHVCWEPQAQGRMCALYASLALLSGLSQEPH

From PMC10253871
